{"source": "paper PMC7889890", "about": "“Structure of photosystem I-LHCI-LHCII from the green alga Chlamydomonas reinhardtii in State 2” (Nature Communications, 2021)", "key": {"[1]": {"target": "T1, PsaD (Chlamydomonas reinhardtii (endogenous in strain CC-137)) (UniProt Q39615)", "T1 sequence": "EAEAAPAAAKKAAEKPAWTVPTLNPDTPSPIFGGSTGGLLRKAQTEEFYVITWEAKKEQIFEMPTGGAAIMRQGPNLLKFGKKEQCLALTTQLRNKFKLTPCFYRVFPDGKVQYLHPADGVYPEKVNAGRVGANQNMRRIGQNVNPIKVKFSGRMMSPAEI", "assay": "cryo-EM structure; single-particle cryo-EM of the PSI-LHCI-LHCII supercomplex purified from state 2 cells; 3.42 Å overall; 10 mM Hepes-KOH pH 7.5, 50 mM NaCl, 1 mM NaN3, 10 mM NaF, 0.01% α-DDM; both purified"}, "[2]": {"target": "PsaL (Chlamydomonas reinhardtii (endogenous in strain CC-137))", "assay": "cryo-EM structure; single-particle cryo-EM of the PSI-LHCI-LHCII supercomplex purified from state 2 cells; 3.42 Å overall; 10 mM Hepes-KOH pH 7.5, 50 mM NaCl, 1 mM NaN3, 10 mM NaF, 0.01% α-DDM; both purified"}}, "note": "These are yes or no findings as the source states them, for the method shown. Binding calls can cover weak binding; strength is not graded here.", "data": [{"molecule": "PsaO", "values": [{"measurement": "binding", "setting": "[1]", "result": "binds"}]}, {"molecule": "PsaH (natural protein, UniProt P13352 31-130, looked up, PSI core subunit PsaH of C. reinhardtii; also called Cr-PsaH; source: endogenous, C. reinhardtii CC-137 cells in state 2; thylakoid membranes solubilised with α-DDM, PSI-LHCI-LHCII purified (sucrose density gradient, gel filtration)) KYGENSRYFDLQDMENTTGSWDMYGVDEKKRYPDNQAKFFTQATDIISRRESLRALVALSGIAAIVTYGLKGAKDADLPITKGPQTTGENGKGGSVRSRL", "values": [{"measurement": "binding", "setting": "[2]", "result": "binds"}]}]}
